# From patent US20040253689A1
# By UniProt entry, the sequences of proteins in these tests, tags left out. Residues count along the entry.
# UniProt P05019, residues 49-118: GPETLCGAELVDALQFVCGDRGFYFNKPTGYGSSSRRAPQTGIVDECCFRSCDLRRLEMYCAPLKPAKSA
# These are yes or no findings as the source states them, for the method shown. Some results given as binding are weak or reduced against the parent protein; the word gives no strength.
# Assays:
# ^125I-IGF-I (human) [1] = target: ^125I-IGF-I (human) (UniProt P05019); test: ligand blot with ^125I-IGF-I after SDS-PAGE
# ^125I-IGF-I (human) [2] = target: ^125I-IGF-I (human) (UniProt P05019); test: solution binding of ^125I-IGF-I, charcoal separation
substance,measurement,setting,value
wild-type CHO-hIGFBP-3 (6xHis/Xpress/enterokinase-tagged mature human IGFBP-3 expressed in CHO-K1 cells from pRSV-Sec-BP3) (from UniProt P17936 28-291),binding,^125I-IGF-I (human) [1],binds
same,binding,^125I-IGF-I (human) [2],binds
